Measured values: the supplement of paper PMC6690932
Values joined by “and” are separate entries in the source; they are usually repeats but may differ in a detail not shown here. Equal entries are not always repeated. ± gives the standard deviation of the averaged measurements. Some of the results follow. Repeats are few or missing, and single values can be far off.

The compounds below were run on HeLa (assay: lysosomal-METRIQ red/green fluorescence ratio relative to DMSO (ratio to DMSO); higher = higher lysosomal activity / lysosomal biogenesis). Settings: 10 µM; 12 h.
CC1=C2C(=O)[C@H]3[C@@H](CC=C4C[C@@H](O)CC[C@@]43C)[C@@H]2CC[C@]12O[C@@H]1C[C@H](C)CN[C@H]1[C@H]2C [Jervine] was tested, and the “lysosomal-METRIQ red/green fluorescence ratio” value was 1.5. O=C(O)c1nn(Cc2ccc(Cl)cc2Cl)c2ccccc12 [Lonidamine] was tested, and the “lysosomal-METRIQ red/green fluorescence ratio” value was 1.04. C[C@H]1CCC/C=C/[C@@H]2C[C@H](O)C[C@H]2[C@H](O)/C=C/C(=O)O1 [brefeldin A] was tested, and the “lysosomal-METRIQ red/green fluorescence ratio” value was 0.364. In the case of CN[C@@H]1C[C@H]2O[C@@](C)([C@@H]1OC)n1c3ccccc3c3c4c(c5c6ccccc6n2c5c31)C(=O)NC4 [Staurosporine], the “lysosomal-METRIQ red/green fluorescence ratio” value is reported as 2.07. With N.N.[Cl][Pt][Cl] [Cisplatin] the “lysosomal-METRIQ red/green fluorescence ratio” value was 0.968. With CCC1(c2ccc(N)cc2)CCC(=O)NC1=O (stereo unspecified) [Aminoglutethimide] the “lysosomal-METRIQ red/green fluorescence ratio” value was 1. With CO/C1=C\C(C)=C\[C@@H](C)[C@@H](O)[C@@H](C)C/C(C)=C/C=C/[C@H](OC)[C@@H]([C@@H](C)[C@@H](O)[C@H](C)[C@@]2(O)C[C@@H](O)[C@H](C)[C@@H](C(C)C)O2)OC1=O [Bafilomycin A1] the “lysosomal-METRIQ red/green fluorescence ratio” value was 0.44. In the case of O=C1C2CCN(CC2)C1(CO)CO, the “lysosomal-METRIQ red/green fluorescence ratio” value is reported as 1. C/C=C(/C)C(=O)O[C@H]1C(C)=C2[C@H]([C@@H]1OC(=O)CCCCCCC)[C@@](C)(OC(C)=O)C[C@H](OC(=O)CCC)[C@@]1(O)[C@H]2OC(=O)[C@@]1(C)O [Thapsigargin] was tested, and the “lysosomal-METRIQ red/green fluorescence ratio” value was 1.4. For CC[C@@]1(O)C(=O)OCc2c1cc1n(c2=O)Cc2cc3ccccc3nc2-1 [Camptothecin], the “lysosomal-METRIQ red/green fluorescence ratio” value was 1.23. In the case of CN1C(=O)CN=C(c2ccc(Cl)cc2)c2cc(Cl)ccc21, the “lysosomal-METRIQ red/green fluorescence ratio” value is reported as 1.17. In the case of C[C@]12CCC(=O)C(O)=C1CC[C@@H]1[C@@H]2CC[C@]2(C)C(=O)CC[C@@H]12 [Formestane], the “lysosomal-METRIQ red/green fluorescence ratio” value is reported as 0.88. With C[C@@H]1O[C@@H](O[C@H]2C[C@@H](O)[C@]3(CO)[C@H]4[C@H](O)C[C@]5(C)[C@@H](C6=CC(=O)OC6)CC[C@]5(O)[C@@H]4CC[C@]3(O)C2)[C@H](O)[C@H](O)[C@H]1O [Ouabain] the “lysosomal-METRIQ red/green fluorescence ratio” value was 1.56. In the case of CO[C@@H]1C[C@@H](C[C@H]2CC[C@H](C)[C@H]([C@@H](C)C(=O)O)O2)O[C@]2(O[C@](C)([C@H]3CC[C@@](C)([C@@H]4O[C@@H]([C@H]5O[C@@](O)(CO)[C@H](C)C[C@@H]5C)C[C@@H]4C)O3)C[C@H]2C)[C@@H]1C [Nigericin], the “lysosomal-METRIQ red/green fluorescence ratio” value is reported as 1.28. CC1=C2C[C@H]3[C@@H](CC=C4C[C@@H](O)CC[C@@]43C)[C@@H]2CC[C@]12O[C@@H]1C[C@H](C)CN[C@H]1[C@H]2C [cyclopamine] was tested, and the “lysosomal-METRIQ red/green fluorescence ratio” value was 1.18. In the case of O=C1NC(=O)c2c1c1c3ccccc3n3c1c1c2c2ccccc2n1[C@H]1CC[C@@H]3O1, the “lysosomal-METRIQ red/green fluorescence ratio” value is reported as 2.09 and 2.18. O[C@H]1[C@H]2[C@H](O)CCCN2C[C@H]1O [Swainsonine] was tested, and the “lysosomal-METRIQ red/green fluorescence ratio” value was 1.04. For COc1ccc2c3c([nH]c2c1)[C@H](C=C(C)C)N1C(=O)[C@@H]2CCCN2C(=O)[C@@H]1C3 [Fumitremorgin C], the “lysosomal-METRIQ red/green fluorescence ratio” value was 1.12. CC(C)(O)/C=C/C(=O)[C@](C)(O)[C@H]1[C@H](O)C[C@@]2(C)[C@@H]3CC=C4[C@@H](C=C(O)C(=O)C4(C)C)[C@]3(C)C(=O)C[C@]12C [Cucurbitacin I] was tested, and the “lysosomal-METRIQ red/green fluorescence ratio” value was 1.47. For C[C@@]1(CO)[C@H](O)CC[C@@]2(C)[C@H]1CC[C@H]1C[C@@H]3C[C@@]12CC[C@]3(O)CO [Aphidicolin], the “lysosomal-METRIQ red/green fluorescence ratio” value was 1.15. With C/C(O)=C(\C#N)C(=O)Nc1cc(Br)ccc1Br the “lysosomal-METRIQ red/green fluorescence ratio” value was 1.05 ± 0.064.
